Publication PMC10296807
These are yes or no findings as the source states them, for the method shown. In cells and extracts the contact can be indirect. Some binding calls cover weakened binding; strength is not graded here. Sequences can lack the tags named with a protein.

Biological target: T1, outer dense fiber protein ODF1, FLAG-tagged (mouse) (UniProt Q61999)
T1 sequence: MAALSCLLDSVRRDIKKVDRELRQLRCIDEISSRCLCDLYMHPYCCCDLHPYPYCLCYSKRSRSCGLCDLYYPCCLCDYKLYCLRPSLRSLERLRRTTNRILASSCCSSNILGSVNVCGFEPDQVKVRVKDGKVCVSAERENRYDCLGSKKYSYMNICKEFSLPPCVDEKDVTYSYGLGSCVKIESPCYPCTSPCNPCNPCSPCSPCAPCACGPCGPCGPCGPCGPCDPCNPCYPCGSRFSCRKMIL
Test: co-IP; FLAG-Odf1 and HA-Tmem232 co-transfected into HEK293T cells, 48 h; lysate incubated with anti-FLAG antibody at 4 °C overnight, Protein A/G agarose beads; blotted with FLAG and HA antibodies

binding: binds
B1: transmembrane protein 232 (TMEM232), HA-tagged (protein, UniProt Q5K6N0-1 1-675)
chain: MKAYKPPVVNKFGVISSTYHEELLKSIFESSNRRKSQKPKPSFSISKEFILRFNHTDNPAEEEELLEQARRLIVRSKRKLGLKTLGSGKHVHLPTAWAEVIYLAQCKGEIQDEALNMLHASLDHVSFDHDQLPALFFLAESVLYRLCCDAFMKGYLYSVEIKLVKIGYLIFLRLFVFFLHGHLESFKQHLLRLQPYLYALHFSEPSYYKYPNIISNVQFILKTSEIICKRELHSEPFVESPDETEDPYSDLNHLQLNKRGYEVNHLLWHSVAAWSCVQNNRPQLTEVLEHLLFYKTQLQTKCWLDSALALMVLGEAAKLDMACLKTLMDLVTDFLENILSAQNQEENYNIYDTSWASEIVFTYTTIIAEVCLYAATSDLRKTALIGFCACKSPQQGISLTDKSEELPELDGASILTLLKYFSSRISDNCEKVIWIGYYGIVYNLVKMSWELQGEQDQDGLRNMIWQTLQKIKDYEQDPRIRCALVIAQAELNGPSDPFCTKATPNSGEEVFSKYIGWRIATTLSRLFFPSLDVAPPKTPVEVDLPRKHTIRERQPAKKRVLRFILKDHSSVVEVSMTPYPNFFTKADKKLEEIIDHHWQKDMEARKREEEAYKAQNQKDKEEKEKIHFQEIMKQRERKLNKQTKPYEIILSEKESGSEKKCGFFELKPSTAPNAK
